Source: PubChem BioAssay AID1671190 (National Center for Advancing Translational Sciences (NCATS), 2021)
The whole screen tested about 580,000 compounds, of which about 6,100 (1.1%) were called active. Inconclusive results, whose numbers are uncertain, are shown with a selection of clear calls. The call rests on the fitted dose curve; in most records, active means well fitted inhibition curve with a large enough effect; inconclusive means small, poorly fitted or top-dose-only effect, or another doubt; inactive means no such curve, though single readings can be large or run the other way. A potency beside an inconclusive call is a rough fit, not a confirmed value.

Sequences of proteins named here, by UniProt entry; tags and fusion partners are left off. A change or cut given only in a name is not applied to a line headed by its entry.
UniProt P18054: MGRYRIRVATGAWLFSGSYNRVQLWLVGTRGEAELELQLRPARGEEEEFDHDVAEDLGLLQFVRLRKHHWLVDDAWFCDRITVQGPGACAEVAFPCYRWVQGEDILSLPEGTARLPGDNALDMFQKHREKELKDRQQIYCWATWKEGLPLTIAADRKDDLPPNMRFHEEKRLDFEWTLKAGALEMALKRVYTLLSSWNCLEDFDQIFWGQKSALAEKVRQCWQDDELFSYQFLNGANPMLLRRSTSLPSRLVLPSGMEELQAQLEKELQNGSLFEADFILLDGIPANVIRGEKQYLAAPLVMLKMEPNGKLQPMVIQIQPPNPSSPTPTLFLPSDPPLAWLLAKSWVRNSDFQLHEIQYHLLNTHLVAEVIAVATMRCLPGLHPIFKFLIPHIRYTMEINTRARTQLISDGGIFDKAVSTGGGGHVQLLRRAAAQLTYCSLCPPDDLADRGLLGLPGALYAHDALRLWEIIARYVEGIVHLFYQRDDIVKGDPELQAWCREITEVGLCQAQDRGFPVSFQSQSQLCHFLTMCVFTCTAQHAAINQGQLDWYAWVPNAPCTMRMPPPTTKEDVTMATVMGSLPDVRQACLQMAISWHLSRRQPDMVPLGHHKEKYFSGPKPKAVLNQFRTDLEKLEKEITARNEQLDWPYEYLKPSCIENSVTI

target: Polyunsaturated fatty acid lipoxygenase ALOX12 (Homo sapiens) (UniProt P18054); test: Primary qHTS assay for inhibitors of human arachidonate 12S-lipoxygenase (ALOX12): Round 2; conditions: purified 12hLO, xylenol orange hydroperoxide absorbance; activity change, negative = inhibition: at 108 µM (top of the series) unless noted
In short: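 Purified human 12hLO at 150 nM in 25 mM Hepes, 0.01% Triton X-100, pH 7.0, preincubated 15 min at room temperature with compound. Reaction started with 40 uM arachidonic acid, 30 min at room temperature. Hydroperoxide measured by Fe-xylenol orange, 573/405 nm absorbance ratio.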
On the % scale 0 is the no-effect control and ±100 the full control effect; potency means the concentration at half of the fitted maximal effect.

SMILES	activity change, negative = inhibition	Potency
CC(C)c1ccc2[nH]c(O)c(N=NC(=O)c3cccc(S(=O)(=O)N4CCCCC4)c3)c2c1	inactive: 17.9%	–
Cc1cc(=O)n2[nH]c(NC(=O)c3ccccc3F)nc2n1	–	inconclusive: 5.01 µM [inhibitor, full curve, poor fit]
O=C(NCCCN1CCOCC1)c1ccc2c(c1)N(Cc1c(F)cccc1Cl)C(=O)c1ccccc1S2	–	inconclusive: 100 µM [inhibitor, single point]
Cc1ccc(-c2nc(Cn3cnc4ccsc4c3=O)co2)cc1	–	inconclusive: 39.8 µM [inhibitor, partial curve, poor fit]
COc1ccc(C(=O)N2CCC3(CC2)NC(=O)N(c2ccc(F)cc2)N3)cc1OC	–	inconclusive: 8.91 µM [inhibitor, full curve, poor fit]
Cc1cc2oc(=O)cc(CN3CCCCC3)c2cc1C	–	inconclusive: 25.1 µM [inhibitor, partial curve, poor fit]
Cc1ccc2nc(-c3ccc(NC(=O)c4cccc([N+](=O)[O-])c4C)cc3)oc2c1	inactive: -14.4%	–
COc1ccc(C(=O)NCCNc2nc3ccc(C)cc3cc2C#N)cc1	–	inconclusive: 50.1 µM [inhibitor, partial curve, poor fit]
COc1ccc(Nc2cc(C)c3cc(NC(=O)c4ccccc4Cl)ccc3n2)cc1	inactive: -15.6%	–
Fc1ccc(-c2noc3ncnc(NCCc4ccc(Cl)cc4)c23)cc1	inactive: -4.15%	–
CSc1ccc(S(=O)(=O)N2CC(=O)Nc3ccccc32)cc1	–	inconclusive: 28.2 µM [inhibitor, full curve, poor fit]
CCCCCCN1C[C@@H](n2cc(COC(=O)c3ccccc3)nn2)[C@H](O)C[C@@H]1c1ccc(Cl)cc1	–	inconclusive: 44.7 µM [inhibitor, partial curve]
Cc1cc(N2CCOCC2)cc2[nH]c(-c3c(NC[C@@H](O)c4cccc(Cl)c4)cc[nH]c3=O)nc12	–	inconclusive: 0.0273 µM [inhibitor, full curve, poor fit]
Cc1ccccc1OCCCCCCN1CCNCC1	–	inconclusive: 112 µM [inhibitor, single point]
C=CCn1c(-c2c(C)nc3cc(C)ccn23)n[nH]c1=S	–	inconclusive: 44.7 µM [inhibitor, partial curve]
COc1ccc2c(c1)c(C(O)CN1CCC(Cc3ccccc3)CC1)c(C)n2C (configuration not stated)	–	inconclusive: 44.7 µM [inhibitor, partial curve, poor fit]
CCCCNC(=S)N1CCn2cccc2C1c1ccc(F)cc1 (configuration not stated)	–	inconclusive: 79.4 µM [inhibitor, partial curve, poor fit]
CCN(CC)S(=O)(=O)c1ccc(Nc2cc(C)nc3ncnn23)cc1	–	inconclusive: 8.91 µM [inhibitor, full curve]
Cc1ccc(C)n1-c1ccc(N2CCOCC2)cc1	–	inconclusive: 50.1 µM [inhibitor, partial curve, poor fit]
CCCn1c(C)c(CC(=O)N2CCOCC2)c2c1CC(C)(C)CC2=O	inactive: 18.2%	–
O=C(NCCO)c1ccc(-c2ccc3nncn3c2)cc1	inactive: 3.61%	–

SMILES	activity change, negative = inhibition	Potency
CCOC(=O)CSc1nnc(NC(=O)CN2CCCCC2)s1	–	active: 6.31 µM
CCCOc1ccc(N2C(=O)CC(NCc3ccc(S(N)(=O)=O)cc3)C2=O)cc1 (configuration not stated)	–	inconclusive: 0.794 µM [inhibitor, full curve, poor fit]
Cc1ccc(-c2cc(C(=O)Nc3cccc(C#N)c3)c3ccccc3n2)o1	–	active: 7.08 µM
CN1CCN(c2ncnc3ccc(-c4ccccc4C(F)(F)F)cc23)CC1	–	inconclusive: 100 µM [inhibitor, partial curve, poor fit]
COc1ccc(/C=C/CN2CCC(CO)(Cc3ccccc3Cl)CC2)cc1	–	inconclusive: 44.7 µM [inhibitor, partial curve, poor fit]
O=C(CSc1nc(=O)n2ccccc2n1)NCc1ccc2c(c1)OCO2	–	inconclusive: 112 µM [inhibitor, partial curve, poor fit]
CCn1c(CNc2ccc(Cl)cc2)nnc1SCC(=O)OC1CCCCC1	–	inconclusive: 79.4 µM [inhibitor, partial curve, poor fit]
O=C(CSc1nnc(-c2ccncc2)n1-c1ccccc1)Nc1ccc(F)cc1	inactive: -7.75%	–
CCOC(=O)C1CCN(S(=O)(=O)c2ccc3[nH]c(=O)oc3c2)CC1	inactive: -11.5%	–
C/C(Nc1ccc(F)cc1)=C(/C#N)C(N)=O	–	inconclusive: 0.562 µM [inhibitor, full curve, poor fit]
CN1CC(=O)N(c2ccccc2F)Cc2c1ncnc2N1CCC(c2ccccc2)CC1	–	inconclusive: 79.4 µM [inhibitor, partial curve, poor fit]
CC(C)(C)NC(=O)[C@@H]1C[C@@H]2CCCC[C@@H]2CN1C[C@@H](O)[C@H](Cc1ccccc1)NC(=O)[C@H](CC(N)=O)NC(=O)c1ccc2ccccc2n1	–	inactive
Cc1cc(Cl)cc(C)c1OCCCCCn1ccnc1	–	inconclusive: 39.8 µM [inhibitor, partial curve, poor fit]
COc1ccccc1/C=C(/C#N)C(=O)c1c[nH]c2cccc(C)c12	inactive: -46.3%	–
COc1ccc(NC(=O)CN(C)C(=O)CCC(=O)c2ccc(C)cc2)cc1	–	inconclusive: 63.1 µM [inhibitor, partial curve, poor fit]
O=C(NCc1ccco1)c1cc2ccc(Cl)cc2[nH]1	–	inconclusive: 44.7 µM [inhibitor, partial curve, poor fit]
O=C1CC(SC(=Nc2ccccc2)Nc2ccccc2)C(=O)N1c1cccc(Cl)c1 (configuration not stated)	inactive: -10.1%	–
O=C(/C=C/c1cccnc1)Nc1ccc(SC2CCCC2)cc1	–	inconclusive: 112 µM [inhibitor, single point]
Cn1c(SCC(=O)NC2CC2)nnc1-c1ccccc1Cl	inactive: 4.9%	–
COc1ccc(C(=O)C(Nc2ccccc2)C(=O)Nc2ccc3ccccc3c2)cc1 (configuration not stated)	–	inconclusive: 50.1 µM [inhibitor, partial curve, poor fit]
O[C@@H]1C[C@@H](c2nc(Cc3ccc(F)cc3Cl)no2)N(Cc2cccs2)C1	–	inconclusive: 35.5 µM [inhibitor, full curve, poor fit]

Entries of single compounds, looked up by structure. Order of values: activity change, negative = inhibition	Potency
COc1ccc(C(=O)N2CCC3(CC2)NC(=O)N(c2ccc(F)cc2)N3)cc1OC is listed with –	inconclusive: 8.91 µM [inhibitor, full curve, poor fit]
COc1ccccc1/C=C(/C#N)C(=O)c1c[nH]c2cccc(C)c12 is listed with inactive: -46.3%	–
CCCn1c(C)c(CC(=O)N2CCOCC2)c2c1CC(C)(C)CC2=O is listed with inactive: 18.2%	–
